Measurements: PMC5928161

The chains behind the UniProt entries cited, without tags or fusion partners. Where a name states a change or a piece, a line headed by the entry shows the natural chain unless it says otherwise.
UniProt Q9JHF5: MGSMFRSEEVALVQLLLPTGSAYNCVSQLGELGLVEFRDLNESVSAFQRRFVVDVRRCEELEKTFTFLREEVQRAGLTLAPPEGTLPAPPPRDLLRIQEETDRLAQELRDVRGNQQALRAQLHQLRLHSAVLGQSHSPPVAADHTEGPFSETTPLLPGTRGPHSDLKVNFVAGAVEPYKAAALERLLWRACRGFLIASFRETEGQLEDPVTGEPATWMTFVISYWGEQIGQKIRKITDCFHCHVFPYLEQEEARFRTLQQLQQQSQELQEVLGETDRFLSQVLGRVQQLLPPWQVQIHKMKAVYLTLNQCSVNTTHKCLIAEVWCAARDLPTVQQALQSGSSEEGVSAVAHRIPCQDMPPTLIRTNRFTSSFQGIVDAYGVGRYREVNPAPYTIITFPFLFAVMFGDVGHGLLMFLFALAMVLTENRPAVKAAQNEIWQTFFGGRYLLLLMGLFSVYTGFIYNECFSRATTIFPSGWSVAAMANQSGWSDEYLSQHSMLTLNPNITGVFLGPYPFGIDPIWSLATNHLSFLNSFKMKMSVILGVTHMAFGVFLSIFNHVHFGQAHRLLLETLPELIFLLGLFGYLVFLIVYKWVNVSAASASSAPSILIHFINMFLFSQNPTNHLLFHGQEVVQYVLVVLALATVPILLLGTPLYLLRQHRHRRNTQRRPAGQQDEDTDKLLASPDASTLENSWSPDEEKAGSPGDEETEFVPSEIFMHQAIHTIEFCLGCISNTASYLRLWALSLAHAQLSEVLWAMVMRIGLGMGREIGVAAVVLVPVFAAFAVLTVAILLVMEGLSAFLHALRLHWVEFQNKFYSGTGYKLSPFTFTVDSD
UniProt Q9ERI2: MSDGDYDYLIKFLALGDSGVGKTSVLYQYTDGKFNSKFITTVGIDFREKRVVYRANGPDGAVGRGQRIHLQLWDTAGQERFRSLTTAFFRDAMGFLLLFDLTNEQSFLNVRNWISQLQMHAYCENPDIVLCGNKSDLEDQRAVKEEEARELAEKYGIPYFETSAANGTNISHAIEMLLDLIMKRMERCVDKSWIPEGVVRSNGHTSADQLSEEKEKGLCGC

Biological target: FLAG-tagged a3 isoform of the V-ATPase a subunit (mouse) (mouse) (UniProt Q9JHF5)
Experiment: co-IP; FLAG-tagged a subunit isoform and V5-tagged small GTPase co-expressed in HEK293T cells; lysed in IP buffer (1% Triton X-100, 10% glycerol, 50 mM Tris-HCl pH 7.4, 150 mM NaCl, 1 mM dithiothreitol, 1 mM EDTA); immunoprecipitated with an anti-FLAG antibody; Western blot for FLAG, the A subunit and V5

V5-fused dominant-negative form of Rab27A (from UniProt Q9ERI2)
binding: binds

These are yes or no findings as the source states them, for the method shown. Binding seen in cells or lysates may run through a third protein. Binding calls can cover weak binding; strength is not graded here.
